According to article PMC4070914:
These are yes or no findings as the source states them, for the method shown. Some entries that bind do so weakly or less than the wild type.

T1: FtsHi4 (Arabidopsis thaliana) (UniProt F4KF14)
T1 sequence: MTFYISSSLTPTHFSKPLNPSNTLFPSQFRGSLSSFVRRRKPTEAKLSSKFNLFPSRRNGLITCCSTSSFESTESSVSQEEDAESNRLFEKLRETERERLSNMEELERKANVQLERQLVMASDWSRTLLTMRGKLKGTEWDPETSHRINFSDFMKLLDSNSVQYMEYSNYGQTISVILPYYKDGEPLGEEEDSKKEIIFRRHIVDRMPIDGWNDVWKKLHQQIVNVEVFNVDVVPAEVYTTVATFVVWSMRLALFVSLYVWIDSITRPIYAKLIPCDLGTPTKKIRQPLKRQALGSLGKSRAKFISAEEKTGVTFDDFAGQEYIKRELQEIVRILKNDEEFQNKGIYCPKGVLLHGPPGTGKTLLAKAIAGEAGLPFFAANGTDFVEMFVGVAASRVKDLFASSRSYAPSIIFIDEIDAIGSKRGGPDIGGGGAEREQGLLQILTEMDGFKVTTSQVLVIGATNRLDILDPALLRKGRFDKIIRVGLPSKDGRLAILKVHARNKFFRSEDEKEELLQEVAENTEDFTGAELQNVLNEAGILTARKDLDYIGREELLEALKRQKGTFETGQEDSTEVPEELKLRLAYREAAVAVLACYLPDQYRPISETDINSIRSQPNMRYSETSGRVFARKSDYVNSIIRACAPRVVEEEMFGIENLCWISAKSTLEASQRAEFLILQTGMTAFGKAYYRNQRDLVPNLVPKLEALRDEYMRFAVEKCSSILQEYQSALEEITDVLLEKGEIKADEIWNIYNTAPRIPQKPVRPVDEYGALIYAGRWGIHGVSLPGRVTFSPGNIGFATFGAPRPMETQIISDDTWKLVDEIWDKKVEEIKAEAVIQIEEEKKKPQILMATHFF


Tests used:
[1] = target: T1, FtsHi4 (Arabidopsis thaliana); test: two-hybrid; Clontech system; baits in pGBKT7, preys in pGADT7; growth on -Ade/-His/-Leu/-Trp medium
[2] = target: FtsHi2 (Arabidopsis thaliana) (UniProt A8MPR5); test: as above

| binding [1] | binding [2] | Binder |
| --- | --- | --- |
| binds | binds | FtsHi2 (protein, UniProt A8MPR5 1-876) MACRFPLHSSSPSQFLSPENRQRLPRNYPSISCQNNSATNVVHEDGDDNDKAKTNQVNLLAIPITLTIISASLAKPSFAAAKVTERKRTQKKPQEALTLEQLKAWSKDLPVVSNRIPYTDILSLKAEGKLKHVIKPPNLSLRQKAEPVLVVLEDSRVLRTVLPSLEGNKRFWEQWDELGIDVQCVNAYTPPVKRPPVPSPYLGFLWKVPAYMLTWVKPKKESKRAAELKRMREDFKRQRKEEIETMKEERVMMEKTMKAQKKQQERKKRKAVRKKKYEESLREARKNYRDMADMWARLAQDPNVATALGLVFFYIFYRVVVLNYRKQKKDYEDRLKIEKAEADERKKMRELEREMEGIEEEDEEVEEGTGEKNPYLQMAMQFMKSGARVRRASNKRLPEYLERGVDVKFTDVAGLGKIRLELEEIVKFFTHGEMYRRRGVKIPGGILLCGPPGVGKTLLAKAVAGEAGVNFFSISASQFVEIYVGVGASRVRALYQEARENAPSVVFIDELDAVGRERGLIKGSGGQERDATLNQLLVSLDGFEGRGEVITIASTNRPDILDPALVRPGRFDRKIFIPKPGLIGRMEILQVHARKKPMAEDLDYMAVASMTDGMVGAELANIVEIAAINMMRDGRTELTTDDLLQAAQIEERGMLDRKDRSLETWRQVAINEAAMAVVAVNFPDMKNIEFLTINPRAGRELGYVRVKMDHIKFKEGMLSRQSILDHITVQLAPRAADELWYGEDQLSTIWAETSDNARSAARSLVLGGLSDKHHGLNNFWVADRINDIDVEALRILNMCYERAKEILGRNRTLMDEVVEKLVQKKSLTKQEFFTLVELYGSSKPMPPSILELRKIKRLELEEMVLKLDMTTARNSS |
| binds | – | FtsHi4 (protein, UniProt F4KF14 1-855) MTFYISSSLTPTHFSKPLNPSNTLFPSQFRGSLSSFVRRRKPTEAKLSSKFNLFPSRRNGLITCCSTSSFESTESSVSQEEDAESNRLFEKLRETERERLSNMEELERKANVQLERQLVMASDWSRTLLTMRGKLKGTEWDPETSHRINFSDFMKLLDSNSVQYMEYSNYGQTISVILPYYKDGEPLGEEEDSKKEIIFRRHIVDRMPIDGWNDVWKKLHQQIVNVEVFNVDVVPAEVYTTVATFVVWSMRLALFVSLYVWIDSITRPIYAKLIPCDLGTPTKKIRQPLKRQALGSLGKSRAKFISAEEKTGVTFDDFAGQEYIKRELQEIVRILKNDEEFQNKGIYCPKGVLLHGPPGTGKTLLAKAIAGEAGLPFFAANGTDFVEMFVGVAASRVKDLFASSRSYAPSIIFIDEIDAIGSKRGGPDIGGGGAEREQGLLQILTEMDGFKVTTSQVLVIGATNRLDILDPALLRKGRFDKIIRVGLPSKDGRLAILKVHARNKFFRSEDEKEELLQEVAENTEDFTGAELQNVLNEAGILTARKDLDYIGREELLEALKRQKGTFETGQEDSTEVPEELKLRLAYREAAVAVLACYLPDQYRPISETDINSIRSQPNMRYSETSGRVFARKSDYVNSIIRACAPRVVEEEMFGIENLCWISAKSTLEASQRAEFLILQTGMTAFGKAYYRNQRDLVPNLVPKLEALRDEYMRFAVEKCSSILQEYQSALEEITDVLLEKGEIKADEIWNIYNTAPRIPQKPVRPVDEYGALIYAGRWGIHGVSLPGRVTFSPGNIGFATFGAPRPMETQIISDDTWKLVDEIWDKKVEEIKAEAVIQIEEEKKKPQILMATHFF |
